Article PMC6331412, “Protein Disulfide Isomerase Modulates the Activation of Thyroid Hormone Receptors” (Frontiers in Endocrinology, 2018)

Key:
[1] = target: T1, hTRβΔAB (amino acids 102–461) labelled with FITC (human) (UniProt P10828); test: condition: only PDIA1 pre-incubated with 0.5 mM H2O2 (Kd >>102 ± 264 μM); fluorescence polarisation; oxidised PDIA1 (pre-incubated with 0.5 mM H2O2 for 30 min) titrated from 0.012 to 25 μM into 50 nM TR-FITC; 20 mM sodium phosphate pH 7.4, 150 mM NaCl, 5 mM MgCl2, no DTT in the buffer; with and without T3 by the methods, not given for the values; both purified
T1 sequence (chain, labelled with fluorescein isothiocyanate (FITC), site not stated): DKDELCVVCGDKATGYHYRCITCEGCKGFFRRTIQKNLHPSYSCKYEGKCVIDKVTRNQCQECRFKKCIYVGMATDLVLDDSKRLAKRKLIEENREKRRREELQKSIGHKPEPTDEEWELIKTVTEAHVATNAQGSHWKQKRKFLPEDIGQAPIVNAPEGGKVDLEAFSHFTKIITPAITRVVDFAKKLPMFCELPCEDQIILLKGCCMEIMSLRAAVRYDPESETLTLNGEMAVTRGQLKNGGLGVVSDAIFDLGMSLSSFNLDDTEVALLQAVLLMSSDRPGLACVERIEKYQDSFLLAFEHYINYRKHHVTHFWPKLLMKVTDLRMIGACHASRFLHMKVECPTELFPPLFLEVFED

[2] = target: T2, hTRβΔAB (amino acids 102–461), recombinant (human) (UniProt P10828); test: SEC; analytical gel filtration, Superdex 200 HR 10/300, buffer A or B with 150 mM NaCl and 2 mM DTT, 0.5 mL/min; hydrodynamic radii from calibration standards; proteins alone and mixed; both purified
T2 sequence: T1 sequence (chain, labelled with fluorescein isothiocyanate (FITC), site not stated)

[3] = target: T2, hTRβΔAB (amino acids 102–461), recombinant (human); test: dynamic light scattering; ZetaSizer NanoZS90, ~1 mg/mL, 15°C; proteins alone and in complex; both purified

binding [1]: no binding
binding [2]: binds
binding [3]: binds
Substance: hPDIA1 full length, recombinant (human) (enzyme)

These are yes or no findings as the source states them, for the method shown. For part of these data: Binding can be weak; no strength is given.
